Publication PMC5179494
No constants are given. Whether binding was seen depends on the method and setting. Some binding calls cover weakened binding; strength is not graded here.

Molecular target: T1, Thermus aquaticus toxin (TaqDarT) (Thermus aquaticus) (UniProt P0DV56)
T1 sequence: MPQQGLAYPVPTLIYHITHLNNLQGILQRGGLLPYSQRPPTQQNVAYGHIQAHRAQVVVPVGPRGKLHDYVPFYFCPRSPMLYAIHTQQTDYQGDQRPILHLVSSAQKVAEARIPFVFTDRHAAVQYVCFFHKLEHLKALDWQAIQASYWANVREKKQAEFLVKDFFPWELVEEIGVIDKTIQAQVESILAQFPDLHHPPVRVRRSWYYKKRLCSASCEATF
Experiment: SEC; both purified

B1: Thermus aquaticus antitoxin (TaqDarG) (enzyme, UniProt P0DV57 1-360)
chain: MLRFVRGNLLEAPVEALVNTVNTVGVMGKGVALQFKRAFPDNYQAYVKACERGQVQIGRIFVYDRGPLAQPRYIFNFPTKKHWRHPSRMEYVEEGLKDLVCRIQELRVRSIALPPLGAGNGGLPWPEVKQRIQEALEALEGVEVWVYEPVENPKAHSIVPLKTKPRLTPARAALLKLFGLYGALGEPLGRLEAQKLAYFLQEAGLDLKLDFACKQFGPYAEPLNHVLARLEGHYIQGFGDRTGISQIRLKPQALDEAVLFLADYPKADEAATRAADWVKGFETPYGLELLATVHWAVRHEGARDWASLQKRLQAWNPRKATFPKTHLQVALDALLKRGALRPEEWQDRPPKLPANVAQEA
  binding: binds
